Construct, isoform or probe ends are uncertain for at least one entry. A negative result means that nothing was seen under these conditions. At least one verdict was read from the data and is not stated in words by the source.
Target: ZmMYB127 (Zea mays (inbred B73)) (UniProt A0A804N6V3)
Assay: competition with a labelled probe
Conditions: EMSA with LightShift Chemiluminescent EMSA kit protocol, 25 °C, 30 min, native PAGE, salt and pH not stated, recombinant protein, protein details: GST (N-terminal, pGEX-6T), label: none (competitor)

Protein sequences, listed by entry. Tags and fused reporters are not part of them.
UniProt A0A804N6V3, entry or part of it: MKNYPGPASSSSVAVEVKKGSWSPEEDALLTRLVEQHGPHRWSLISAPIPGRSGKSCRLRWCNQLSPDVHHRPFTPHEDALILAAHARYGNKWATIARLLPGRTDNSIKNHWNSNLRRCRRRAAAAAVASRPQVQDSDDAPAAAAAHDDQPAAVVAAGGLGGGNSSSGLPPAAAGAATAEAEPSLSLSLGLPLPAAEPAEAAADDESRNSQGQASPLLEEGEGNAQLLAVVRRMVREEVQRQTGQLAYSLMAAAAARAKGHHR

Sequence: GTTGAAATTGATTGAAAAAAACAAATTTTGTTAA (double strand) [z1D2 promoter mutant]
- binding result (unlabeled mutant vs biotin z1D2 probe): no binding

Sequence: GAGAATGAAAGCGAAAAAAAACTCACGGACTCTAAG (double strand) [Ae1 promoter mutant]
- binding result (unlabeled mutant vs biotin Ae1 probe): no binding

Sequence: TCTACTAAGCTTGTTAAAAAACGAGAAGAATATTAG (double strand) [z1C1 promoter mutant]
- binding result (unlabeled mutant vs biotin z1C1 probe): no binding

Sequence: CACGCGCCGCCATTTAAAAAACGAATGAGTCCATGG (double strand) [Bt1 promoter mutant]
- binding result (unlabeled mutant vs biotin Bt1 probe): no binding

Source: article PMC12906810
